Results are given in words; binding and its absence hold for the method and conditions named. In cells and extracts the contact can be indirect. Some results given as binding are weak or reduced against the parent protein; the word gives no strength.
Molecular target: endogenous p75NTR of PC12 cells (UniProt P07174)
Test: co-immunoprecipitation from PC12 cells

The chains behind the UniProt entries cited, without tags or fusion partners. Residues count along the entry.
UniProt P07174, residues 30-425: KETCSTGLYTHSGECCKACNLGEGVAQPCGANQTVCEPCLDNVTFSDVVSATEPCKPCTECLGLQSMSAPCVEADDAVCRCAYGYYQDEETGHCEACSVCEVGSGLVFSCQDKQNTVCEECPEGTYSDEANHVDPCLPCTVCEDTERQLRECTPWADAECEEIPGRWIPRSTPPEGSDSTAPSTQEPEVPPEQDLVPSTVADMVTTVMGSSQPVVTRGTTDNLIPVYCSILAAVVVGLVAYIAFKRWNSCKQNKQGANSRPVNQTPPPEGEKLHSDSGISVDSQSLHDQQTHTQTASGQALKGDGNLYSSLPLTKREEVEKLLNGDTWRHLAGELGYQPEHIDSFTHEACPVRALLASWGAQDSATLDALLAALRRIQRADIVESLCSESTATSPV

- binding: binds
B1: endogenous NRAGE of PC12 cells (protein, UniProt Q9ES73 1-775, looked up)
chain: MAQKPDGGAGLRGFQAEASVEDSALLVQTLMEAIQISEAPPTSQATAAASGPNASPQSSQPPTANEKADTEVSAAAARPKTGFKAQNTTTKGPNDYSQARNAKEMPKNQPKVAFKSQNATSKGPHAASDFSHAASTGKSAAKKSEMAFKGQNTTTKAGPSATYNFTQSPSANEMTNNQPKTAKAWNDTTKIPGADAQTQNVNQAKMADVGTSAGISETDGAAAQTSADGSQAQNVESRTIIRGKRTRKINNLNVEENSNGDQRRASLASGNWRSAPVPVTTQNPPGAPPNVLWQTPLAWQNPSGWQNQTARQTPPARQSPPARQTPSAWQNPVAWQNPVIWPNPVIWQNPVIWPNPIVWPGPIVWPNPMAWQSTPGWQSPPSWQAPPSWQSPQDWQGPPDWQLPPDWSMPPDWSFPSDWPFPPDWIPADWPIPPDWQNLRPSPNLRSSPNSRASQNQGPPQPRDVALLQERANKLVKYLMLKDYTKVPIKRSEMLRDIIREYTDVYPEIIERACFVLEKKFGIQLKEIDKEEHLYILISTPESLAGILGTTKDTPKLGLLLVILGIIFMNGNRATEAVLWEALRKMGLRPGVRHPLLGDLRKLLTYEFVKQKYLDYRRVPNSNPPEYEFLWGLRSYHETSKMKVLRFIAEVQKRDPRDWTAQFMEAADEALDALDAAAAEAEARAEARNRMGIGDEAVSGPWSWDDIEFELLTWDEEGDFGDPWSRIPFTFWARYHQNARSRFPQAFTGPIIGPSGTATANFAANFGAIGFFWVE
